Patent publication US20060246565A1, “Method of purifying reduced coenzyme q” (priority 2003, published 2006)
At least one compound was matched to its structure with a doubt left.

Experiment: Oxidation stability of reduced coenzyme Q10 dissolved in various solvents, stirred in the air at 35° C. for 24 hours
Type: physicochemical
Settings: 1 g in 100 g solvent, 24 hours stirring in the air at 35° C., initial ratio 99.6/0.4

SMILES: COc1c(O)c(C)c(C/C=C(\C)CC/C=C(\C)CC/C=C(\C)CC/C=C(\C)CC/C=C(\C)CC/C=C(\C)CC/C=C(\C)CC/C=C(\C)CC/C=C(\C)CCC=C(C)C)c(O)c1OC [reduced coenzyme Q10]
- R Reduced coenzyme Q10/Oxidized coenzyme Q10 weight ratio (Acetonitrile): 96.0/4.0
- R Reduced coenzyme Q10/Oxidized coenzyme Q10 weight ratio (Ethyl acetate): 96.4/3.6
- R Reduced coenzyme Q10/Oxidized coenzyme Q10 weight ratio (Heptane): 96.7/3.3
